Results deposited as PubChem BioAssay AID1508588 (Peter MacCallum Cancer Centre, 2020)

Test: 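Which gene losses make BRAF-mutant melanoma cells more responsive to vemurafenib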 (primary screen)
Cell system: human WM266.4 melanoma cells (BRAF V600 mutant)
Reagent: siRNA pool against human genes, 40 nM
Time to read-out: 96 h from transfection to read-out
Treatment: vemurafenib 300 nM (about IC25), added 48 h after transfection, for 48 h; comparison arm got DMSO vehicle only
Read-out: 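Cell gain (DAPI nuclei at end minus before drug, mean of two replicates) and medium lactate by absorbance per cell, both as ratio to non-targeting siRNA, also grouped into fold-change classes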
Direction: cell gain with vemurafenib: higher = more cell gain than with non-targeting siRNA; lactate per cell with vemurafenib: higher = more lactate made per cell
Call rule: 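Enhancement is called by pairing each knock-down's vehicle-arm and drug-arm fold-change classes for viability or glycolysis; which class combinations qualify is not given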
Meaning of the calls: active = enhances vemurafenib effect; inactive = no enhancement seen
This is one part, drawn at random, of about 18,000 reagents. 790 of them (4.4%) count as active. 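Calls rest on a combination of fold-change classes in drug and vehicle arms, not all shown here.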 Unmarked entries are inactive. Reagent sequences are not shown.

| Gene | cell gain with vemurafenib | lactate per cell with vemurafenib |
| --- | --- | --- |
| KDELR2 | 0.82 | 0.88 |
| DENND10P1 | 0.65 | 0.6 |
| RWDD1 | 0.27 | 0.83 |
| SCN4A | 1.1 | 0.41 |
| MTIF3 | 0.81 | 1.08 |
| ADRA2A | 0.99 | 0.64 |
| ADAM29 | 0.04 | 1.66 |
| CXADR | 0.9 | 0.69 |
| NEFH | 0.37 | 0.82 |
| CCDC69 | 0.75 | 0.64 |
| OR4K1 | 0.75 | 1.23 |
| PHIP | 0.81 | 0.4 |
| COMP | 0.06 | 1.2 |
| ELOB | 0.19 | 2.69 |
| BSDC1 | 0.62 | 0.55 |
| SEC31A | 1.05 | 0.48 |
| IAPP | 0.6 | 0.28 |
| CRHBP | 0.4 | 1.6 |
| TSNAX | 0.68 | 0.06 |
| DOK2 | 0.11 (active) | 0.55 |
| CXCL5 | 0.68 | 1.39 |
| EEF1A1 | 0.15 | 2.28 |
| DENND2C | 1.03 | 0.76 |
| YIPF4 | 0.94 | 0.38 |
| OR2T12 | 0.2 | 2.26 |
| GLRA1 | 0.36 (active) | 0.41 |
| HBP1 | 0.37 | 0.56 |
| FAM193B | 0.03 | 2 |
| ST8SIA3 | 0.52 | 0.92 |
| SMIM43 | 0.99 | 0.36 |
| DPH6 | 0.97 | 0.55 |
| NBN | 0.83 | 0.68 |
| KBTBD4 | 0 | 3.17 |
| NDUFA8 | 0.57 | 1.9 |
| WDR12 | 0.27 | 1.02 |
| ADPRH | 0.82 | 1.18 |
| CACNA1C | 0.28 | 2.3 |
| SPACDR | 0.28 | 0.31 |
| OR5P2 | 0.13 | 0.68 |
| ZNF821 | 1.11 | 0.72 |
| USP12 | 0.73 | 1.08 |
| ALDH18A1 | 0.5 | 1.05 |
| NCBP1 | 0.39 | 1.32 |
| MAP1A | 0.36 (active) | 0.66 |
| RPL37A | -0.02 | 2.3 |
| ALDH3A2 | 1.07 | 1.12 |
| BTN2A1 | 0.39 | 1.4 |
| TRMT9B | 0.13 | 1.12 |
| HTRA3 | 0.16 | 1.39 |
| OR13C4 | 0.99 | 0.88 |
| FABP4 | 0.42 | 0.41 |
| CCS | 0.82 | 1.05 |
| POM121 | 0.39 | 0.65 |
| NOL4 | 0.73 | 0.5 |
| TCF3 | 0.61 (active) | 0.42 |
| AMIGO2 | -0.01 | 0.3 |
| VIT | 0.78 | 0.66 |
| VMA22 | 0.67 | 0.52 |
| YIPF6 | 0.44 (active) | 0.15 |
| CAPN15 | 0.61 | 0.76 |
| ERP44 | 0.59 | 0.67 |
| COPS9 | 0.95 | 0.82 |
| PIBF1 | 0.6 | 0.97 |
| FOXJ1 | 0.77 | 0.9 |
| C11orf42 | 0.5 | 1.23 |
| TMEM119 | 0.77 | 0.7 |
| E2F7 | 0.81 | 0.94 |
| MRM1 | 0.54 | 2.05 |
| NADK | 0.35 | 0.62 |
| PARP3 | 0.5 | 0.48 |
| SLC2A1 | 0.83 | 0.7 |
| POM121L2 | 0.51 | 1.57 |
| RGS6 | 0.63 | 1.46 |
| MYL2 | 0.68 | 0.92 |
| MRAP2 | 0.74 | 1.62 |
| HARS2 | 0.8 | 1.31 |
| GAA | 0.79 | 1.02 |
| UBL4B | 0.95 | 0.62 |
| PHLDA3 | 0.79 | 0.98 |
| UBE4B | 0.97 | 0.56 |
| ZNF471 | 0.6 | 0.94 |
| PFN4 | 0.76 | 0.65 |
| MOV10 | 0.29 | 0.9 |
| RPS6KA3 | 0.78 | 0.76 |
| HYAL3 | 0.4 | 2.29 |
| MICU3 | 0.95 | 0.44 |
| GCKR | 1.08 | 0.8 |
| PIGU | 0.77 | 0.54 |
| SAMD14 | 0.85 | 0.86 |
| FSD1 | 0.62 | 0.62 |
| NECAB1 | 0.98 | 0.36 |
| TAS2R9 | 0.05 | 1.84 |
| FSCN2 | 0.48 | 1.61 |
| C1QTNF4 | 0.25 | 1.01 |
| PTEN | 0.63 | 1.2 |
| PCGF1 | 0.89 | 1 |
| LMAN2 | 0.72 | 1.44 |
| SF1 | 0.54 | 0.42 |
| TBCE | 0.94 | 0.72 |
| RIPOR1 | 0.14 | 2.06 |
| FBXO40 | 0.41 | 1.06 |
| CPLANE2 | 0.31 | 1.7 |
| PMP2 | 0.68 | 0.3 |
| ZNF468 | 0.91 | 0.98 |
| FAM13C | 0.63 | 2.44 |
| SLC48A1 | 0.26 | 0.54 |
| ALPG | 0.43 | 1.24 |

4 entries already listed, arranged by “cell gain with vemurafenib”, ascending.
| Gene | cell gain with vemurafenib | lactate per cell with vemurafenib |
| --- | --- | --- |
| GAA | 0.79 | 1.02 |
| PHLDA3 | 0.79 | 0.98 |
| HARS2 | 0.8 | 1.31 |
| UBL4B | 0.95 | 0.62 |
